PubChem BioAssay AID652243 | Drosophila RNAi Screening Center – 2013
Purpose: 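Knock-downs that decrease or increase androgen receptor reporter signal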 (primary screen). System: Drosophila S2R+ cells. Knock-down reagent: long dsRNA against Drosophila genes. Duration: 72 h (48 h, then 24 h hormone). Conditions: synthetic androgen R1881 at 10 nM for 24 h. Measurement: 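Firefly light from an androgen-responsive reporter and Renilla control light per well, raw and unnormalised, for each of two replicates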. Reading the numbers: firefly reporter light: higher = more light from androgen-responsive reporter; Renilla control light: higher = more constitutive control signal (cell number, transfection). Active means: 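Hit when the log firefly-to-Renilla ratio dropped or increased by a fixed fold versus the mean of GFP or LacZ controls across duplicate plates; lowering cut given as 1.5 and as 3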. Meaning of the calls: active = hit: reporter lowered or raised; inactive = no hit.
The screen tested about 24,000 reagents; this is an unselected part of those with a known target gene and a result. Over the whole deposit, 246 (1%) got an active call. 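Plates not normalised; calls are printed but the firefly/Renilla ratio behind them is not deposited; fold cut for lowering reported inconsistently.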 Raw values vary from plate to plate and are shown uncorrected. Names joined by + are all predicted targets of the reagent. No sequences are given here. Not stated in the record: the amount of reagent.

| firefly reporter light, replicate 1 | firefly reporter light, replicate 2 | Renilla control light, replicate 1 | Renilla control light, replicate 2 | Outcome | target | DRSC id |
| --- | --- | --- | --- | --- | --- | --- |
| 7.98e5 | 5.43e5 | 2.72e6 | 1.98e6 | inactive | CR18217 | DRSC21506 |
| 1.18e6 | 5.21e5 | 2.77e6 | 1.38e6 | inactive | CG6357 | DRSC06979 |
| 77359 | 1.18e5 | 1.04e6 | 7.44e5 | inactive | Obp56e | DRSC07188 |
| 45932 | 1.48e5 | 4.41e5 | 1.08e6 | inactive | CG7332 | DRSC20038 |
| 4.48e5 | 4.41e5 | 1.16e6 | 1.31e6 | inactive | CG7332 | DRSC28841 |
| 5.32e5 | 5.48e5 | 1.38e6 | 1.28e6 | inactive | CG7332 | DRSC39002 |
| 2.52e5 | 1.75e5 | 9.61e5 | 7.04e5 | inactive | CG15452 | DRSC20523 |
| 5.19e5 | 6.73e5 | 2.09e6 | 1.62e6 | inactive | AGO3 | DRSC21386 |
| 7.32e5 | 1.09e6 | 1.24e6 | 2.03e6 | inactive | ND-19 | DRSC04404 |
| 2.08e5 | 1.97e5 | 5.11e5 | 5.85e5 | inactive | ND-19 | DRSC27604 |
| 1.37e5 | 1.17e5 | 3.65e5 | 2.26e5 | inactive | RpL15 | DRSC20963 |

Limited to “firefly reporter light, replicate 2”, for 3 of the entries above:
Obp56e [DRSC07188]	1.18e5
CG7332 [DRSC20038]	1.48e5
CG7332 [DRSC28841]	4.41e5

The results go on.
| firefly reporter light, replicate 1 | firefly reporter light, replicate 2 | Renilla control light, replicate 1 | Renilla control light, replicate 2 | Outcome | target | DRSC id |
| --- | --- | --- | --- | --- | --- | --- |
| 81822 | 94603 | 1.52e6 | 1.64e6 | inactive | hng3 | DRSC08367 |
| 9.79e5 | 6.69e5 | 1.94e6 | 1.77e6 | inactive | hng3 | DRSC29262 |
| 1.60e5 | 1.66e5 | 1.78e6 | 1.61e6 | inactive | CG7203 | DRSC03026 |
| 7.29e5 | 6.95e5 | 6.35e5 | 1.01e6 | inactive | CG7203 | DRSC25657 |
| 1.12e5 | 79986 | 5.93e5 | 5.17e5 | inactive | CG31975 + ovm | DRSC00323 |
| 53137 | 50148 | 7.62e5 | 7.62e5 | inactive | CG6421 | DRSC07420 |
| 3.04e5 | 5.16e5 | 7.18e5 | 7.18e5 | inactive | CG6421 | DRSC29544 |
| 2.23e5 | 1.65e5 | 3.16e6 | 3.27e6 | inactive | mRpL37 | DRSC16062 |
| 1.15e6 | 9.65e5 | 2.32e6 | 1.70e6 | inactive | CG33228 | DRSC38636 |
| 2.59e5 | 2.04e5 | 7.84e5 | 7.48e5 | inactive | Frl | DRSC09300 |
| 2.00e5 | 1.75e5 | 2.04e6 | 1.80e6 | inactive | Frl | DRSC10027 |
| 2.46e5 | 2.35e5 | 1.41e6 | 1.30e6 | inactive | Frl | DRSC10716 |
| 3.99e5 | 4.00e5 | 1.42e6 | 1.39e6 | inactive | Frl | DRSC28783 |
